The numbers were not newly measured in US5756107A, “Formulations and methods for reducing skin irritation” (Cosmederm Technologies, priority 1994, dated 1998), which cites them from elsewhere.

The test system of this data set is skin. To be noted: skin local anesthetics; cited from earlier work.

In the case of `CCN(CC)CC(=O)Nc1c(C)cccc1C` [Lidocaine], the “anesthetic side-effects (comparator)” value is on record as “undesirable anesthetic side-effects”.
